This note sets out measurements from article doi:10.1101/2021.05.17.442671.

Protein sequences, listed by entry. Tags and fused reporters are not part of them.
UniProt Q1JPP8: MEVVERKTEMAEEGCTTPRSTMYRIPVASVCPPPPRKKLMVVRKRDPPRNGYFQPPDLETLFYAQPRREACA
UniProt P25859: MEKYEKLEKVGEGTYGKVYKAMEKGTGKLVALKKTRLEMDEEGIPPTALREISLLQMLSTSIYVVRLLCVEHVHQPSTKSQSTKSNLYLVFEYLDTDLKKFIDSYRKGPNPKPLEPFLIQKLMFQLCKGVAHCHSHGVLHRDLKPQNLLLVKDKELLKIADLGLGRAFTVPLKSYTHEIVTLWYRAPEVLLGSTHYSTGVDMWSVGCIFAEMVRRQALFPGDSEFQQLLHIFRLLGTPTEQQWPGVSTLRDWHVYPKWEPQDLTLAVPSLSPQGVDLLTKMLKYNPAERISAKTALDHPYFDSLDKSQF

For the assay, the target named is SIAMESE-RELATED4 (SMR4) (Arabidopsis) (UniProt Q1JPP8). Put plainly: two-hybrid.

These are yes or no findings as the source states them, for the method shown.

Consider CDKB1;1 (from UniProt P25859 1-309), for which the binding entry was “no binding”.
